Data as given in PubChem BioAssay AID1671195 (Yale University, 2021)
Test: 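Regulators of LDL receptor activity judged by labelled LDL uptake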 (primary screen). System: human Huh7 hepatoma cells. Knock-down reagent: siRNA pool against human genes, 18 nM. Duration: about 2 to 2.5 days of knockdown, then 8 h LDL uptake. Treatment: DiI-labelled LDL at 30 µg/ml for 8 h, in lipoprotein-deficient serum medium. Measurement: 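Per-cell DiI-LDL intensity by automated imaging; well means scaled to the plate median and given as a robust z-score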. Reading the numbers: robust z-score: higher = more LDL uptake after knockdown. Hit rule: 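a gene counts as active if at least two replicate z-scores exceed ±2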.
Shown is one part, drawn at random, of about 22,000 reagents. Of all reagents, about 1,510 (6.9%) were called active. 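Active includes knockdowns raising or lowering LDL uptake; positive z-scores mean more uptake, negative mean less.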 A number with no mark means an inactive call. The numbers tell different reagents against one gene apart.

gene	pool no.	robust z-score, replicate 1	robust z-score, replicate 2	robust z-score, replicate 3
PGF	1	-0.216	-0.563	-1.36
CNTNAP5	1	-0.694	-0.586	-1.04
HAVCR2	1	1.24	1.1	0.526
BRMS1L	1	-0.964	-0.914	-1.01
LRRC49	1	-1.64	-1.01	0.281
HCN1	1	1.79	0.62	1.24
ARGLU1-DT	1	-0.812	-0.835	-0.79
LOC151451 (retired record)	1	2.51	1.19	1.07
ZNF853	1	0.378	1.37	1.36
ZNF853	2	1.21	0.0898	0.465
INTS10	1	-0.607	-1.28	-0.943
PCDHB1	1	-1.26	-0.93	-1.13
MESP2	1	0.683	0.602	0.478
AMPD1	1	-0.801	-0.595	0.108
ZNF750	1	2.34	1.63	1.67
ARHGEF10	1	-0.761	-0.58	-0.417
HCFC2	1	0.122	-0.548	0.8
SMC3	1	0.548	-1.09	-0.838
UGT2B15	1	-0.294	-0.884	-0.234
MRGPRX2	1	-0.463	0.0263	0.16
FABP5	1	1.42	-0.472	-2.71
SRP72	1	-0.549	-0.317	0.0379
PGBD4	1	0.0632	0.827	0.285
WDR74	1	-0.297	0.964	0.447
ANKRD52	1	0.286	0.539	0.704
CSTA	1	-0.0156	-0.0974	-0.591
RSPO2	1	4.73 (active)	5.33	5.03
TKFC	1	-0.753	-0.426	-1.25
BHMT	1	-0.368	-0.0772	-0.227
LOC439981 (retired record)	1	0.661	1.03	0.95
C11orf87	1	-1.51	-0.978	-1.65
FMO4	1	-0.238	0.23	0.166
SIRT1	1	-1.87	-1.19	-1.81
YPEL1	1	0.154	-0.107	-1.79
BEND4	1	1.91	1.5	1.29
CPLX2	1	2.16 (active)	2.33	2.34
RPRD1A	1	-0.208	-1.81	0.337
BCL2L14	1	-0.713	-1.26	-1.07
CFHR4	1	-0.735	-0.688	-0.308
SAGE2P	1	0.552	0.203	0.316
SURF2	1	1.55	1.75	1.92
PRSS58	1	0.202	0.613	-0.146
HCG27	1	-0.433	-0.662	-0.68
TEX29	1	1.2	0.621	1.18
FEZ1	1	-2.04	-1.63	0.09
LOC440237 (retired record)	1	-1.65	-1.12	-1.44
